According to the supplement of paper PMC10849652:
Some of the results follow.

Chains of the proteins cited; added tags and fusions are not shown. Lines headed by an entry give the natural chain unless they say otherwise; changes in a name come on top.
UniProt Q96EW2: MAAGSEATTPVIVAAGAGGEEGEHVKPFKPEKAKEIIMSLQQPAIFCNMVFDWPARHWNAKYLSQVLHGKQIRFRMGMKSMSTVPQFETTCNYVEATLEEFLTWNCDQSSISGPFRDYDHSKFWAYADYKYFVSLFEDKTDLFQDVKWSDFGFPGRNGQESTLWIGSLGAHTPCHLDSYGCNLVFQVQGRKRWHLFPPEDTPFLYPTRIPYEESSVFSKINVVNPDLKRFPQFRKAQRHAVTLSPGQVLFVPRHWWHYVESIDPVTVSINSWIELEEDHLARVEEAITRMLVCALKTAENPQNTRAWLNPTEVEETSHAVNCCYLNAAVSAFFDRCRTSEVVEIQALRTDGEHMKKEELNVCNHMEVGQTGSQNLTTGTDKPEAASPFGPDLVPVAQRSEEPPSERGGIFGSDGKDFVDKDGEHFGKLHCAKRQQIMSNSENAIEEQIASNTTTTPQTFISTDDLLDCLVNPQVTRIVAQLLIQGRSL
UniProt Q6UWB1, whole entry, looked up: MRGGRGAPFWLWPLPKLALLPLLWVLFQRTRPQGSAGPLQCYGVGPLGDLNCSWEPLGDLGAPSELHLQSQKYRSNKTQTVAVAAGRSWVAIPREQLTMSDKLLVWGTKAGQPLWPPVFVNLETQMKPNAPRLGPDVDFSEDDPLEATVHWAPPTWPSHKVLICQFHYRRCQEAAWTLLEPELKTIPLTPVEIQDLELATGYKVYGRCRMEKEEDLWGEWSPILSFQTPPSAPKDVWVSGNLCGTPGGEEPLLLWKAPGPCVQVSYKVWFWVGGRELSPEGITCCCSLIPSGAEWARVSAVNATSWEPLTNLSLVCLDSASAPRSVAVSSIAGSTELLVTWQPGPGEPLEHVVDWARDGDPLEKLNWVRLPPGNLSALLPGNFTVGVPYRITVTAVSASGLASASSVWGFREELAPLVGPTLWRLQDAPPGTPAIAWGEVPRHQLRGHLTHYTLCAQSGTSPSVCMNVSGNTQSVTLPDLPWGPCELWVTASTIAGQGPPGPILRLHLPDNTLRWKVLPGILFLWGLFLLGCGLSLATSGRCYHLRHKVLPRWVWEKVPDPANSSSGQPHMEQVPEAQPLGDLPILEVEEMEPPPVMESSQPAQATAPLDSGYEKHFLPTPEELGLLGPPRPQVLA
UniProt Q9BYX4: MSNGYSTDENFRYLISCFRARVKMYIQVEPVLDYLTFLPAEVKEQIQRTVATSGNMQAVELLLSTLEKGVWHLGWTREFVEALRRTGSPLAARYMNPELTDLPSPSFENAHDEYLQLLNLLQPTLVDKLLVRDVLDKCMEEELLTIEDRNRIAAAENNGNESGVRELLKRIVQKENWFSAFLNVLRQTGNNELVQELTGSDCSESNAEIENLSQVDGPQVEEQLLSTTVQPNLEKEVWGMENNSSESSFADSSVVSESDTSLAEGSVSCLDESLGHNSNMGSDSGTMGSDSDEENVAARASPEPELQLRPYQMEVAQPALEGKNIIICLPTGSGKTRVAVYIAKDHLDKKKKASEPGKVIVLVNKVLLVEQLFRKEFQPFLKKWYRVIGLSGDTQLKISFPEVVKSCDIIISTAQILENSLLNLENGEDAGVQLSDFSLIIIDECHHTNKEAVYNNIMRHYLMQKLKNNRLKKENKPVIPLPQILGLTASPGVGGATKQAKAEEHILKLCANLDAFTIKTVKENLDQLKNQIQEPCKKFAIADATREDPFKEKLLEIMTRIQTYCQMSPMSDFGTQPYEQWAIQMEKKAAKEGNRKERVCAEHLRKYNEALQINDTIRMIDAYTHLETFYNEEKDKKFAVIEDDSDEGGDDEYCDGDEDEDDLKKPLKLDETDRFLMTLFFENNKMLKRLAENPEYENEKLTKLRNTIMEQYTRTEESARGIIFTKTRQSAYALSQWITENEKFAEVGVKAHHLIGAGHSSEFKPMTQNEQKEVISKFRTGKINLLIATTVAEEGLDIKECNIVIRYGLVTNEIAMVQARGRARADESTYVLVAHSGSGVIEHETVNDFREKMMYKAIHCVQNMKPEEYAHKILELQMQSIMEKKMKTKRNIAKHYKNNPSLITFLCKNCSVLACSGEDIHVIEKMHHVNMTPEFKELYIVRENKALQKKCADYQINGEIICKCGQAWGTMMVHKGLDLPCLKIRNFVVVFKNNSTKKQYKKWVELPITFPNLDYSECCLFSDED
UniProt Q9H7X7: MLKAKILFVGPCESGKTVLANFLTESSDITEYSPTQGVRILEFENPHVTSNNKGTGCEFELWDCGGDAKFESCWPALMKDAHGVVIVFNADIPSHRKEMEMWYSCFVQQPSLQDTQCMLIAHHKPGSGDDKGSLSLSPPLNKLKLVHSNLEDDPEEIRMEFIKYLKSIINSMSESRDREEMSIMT
UniProt Q9Y2F5: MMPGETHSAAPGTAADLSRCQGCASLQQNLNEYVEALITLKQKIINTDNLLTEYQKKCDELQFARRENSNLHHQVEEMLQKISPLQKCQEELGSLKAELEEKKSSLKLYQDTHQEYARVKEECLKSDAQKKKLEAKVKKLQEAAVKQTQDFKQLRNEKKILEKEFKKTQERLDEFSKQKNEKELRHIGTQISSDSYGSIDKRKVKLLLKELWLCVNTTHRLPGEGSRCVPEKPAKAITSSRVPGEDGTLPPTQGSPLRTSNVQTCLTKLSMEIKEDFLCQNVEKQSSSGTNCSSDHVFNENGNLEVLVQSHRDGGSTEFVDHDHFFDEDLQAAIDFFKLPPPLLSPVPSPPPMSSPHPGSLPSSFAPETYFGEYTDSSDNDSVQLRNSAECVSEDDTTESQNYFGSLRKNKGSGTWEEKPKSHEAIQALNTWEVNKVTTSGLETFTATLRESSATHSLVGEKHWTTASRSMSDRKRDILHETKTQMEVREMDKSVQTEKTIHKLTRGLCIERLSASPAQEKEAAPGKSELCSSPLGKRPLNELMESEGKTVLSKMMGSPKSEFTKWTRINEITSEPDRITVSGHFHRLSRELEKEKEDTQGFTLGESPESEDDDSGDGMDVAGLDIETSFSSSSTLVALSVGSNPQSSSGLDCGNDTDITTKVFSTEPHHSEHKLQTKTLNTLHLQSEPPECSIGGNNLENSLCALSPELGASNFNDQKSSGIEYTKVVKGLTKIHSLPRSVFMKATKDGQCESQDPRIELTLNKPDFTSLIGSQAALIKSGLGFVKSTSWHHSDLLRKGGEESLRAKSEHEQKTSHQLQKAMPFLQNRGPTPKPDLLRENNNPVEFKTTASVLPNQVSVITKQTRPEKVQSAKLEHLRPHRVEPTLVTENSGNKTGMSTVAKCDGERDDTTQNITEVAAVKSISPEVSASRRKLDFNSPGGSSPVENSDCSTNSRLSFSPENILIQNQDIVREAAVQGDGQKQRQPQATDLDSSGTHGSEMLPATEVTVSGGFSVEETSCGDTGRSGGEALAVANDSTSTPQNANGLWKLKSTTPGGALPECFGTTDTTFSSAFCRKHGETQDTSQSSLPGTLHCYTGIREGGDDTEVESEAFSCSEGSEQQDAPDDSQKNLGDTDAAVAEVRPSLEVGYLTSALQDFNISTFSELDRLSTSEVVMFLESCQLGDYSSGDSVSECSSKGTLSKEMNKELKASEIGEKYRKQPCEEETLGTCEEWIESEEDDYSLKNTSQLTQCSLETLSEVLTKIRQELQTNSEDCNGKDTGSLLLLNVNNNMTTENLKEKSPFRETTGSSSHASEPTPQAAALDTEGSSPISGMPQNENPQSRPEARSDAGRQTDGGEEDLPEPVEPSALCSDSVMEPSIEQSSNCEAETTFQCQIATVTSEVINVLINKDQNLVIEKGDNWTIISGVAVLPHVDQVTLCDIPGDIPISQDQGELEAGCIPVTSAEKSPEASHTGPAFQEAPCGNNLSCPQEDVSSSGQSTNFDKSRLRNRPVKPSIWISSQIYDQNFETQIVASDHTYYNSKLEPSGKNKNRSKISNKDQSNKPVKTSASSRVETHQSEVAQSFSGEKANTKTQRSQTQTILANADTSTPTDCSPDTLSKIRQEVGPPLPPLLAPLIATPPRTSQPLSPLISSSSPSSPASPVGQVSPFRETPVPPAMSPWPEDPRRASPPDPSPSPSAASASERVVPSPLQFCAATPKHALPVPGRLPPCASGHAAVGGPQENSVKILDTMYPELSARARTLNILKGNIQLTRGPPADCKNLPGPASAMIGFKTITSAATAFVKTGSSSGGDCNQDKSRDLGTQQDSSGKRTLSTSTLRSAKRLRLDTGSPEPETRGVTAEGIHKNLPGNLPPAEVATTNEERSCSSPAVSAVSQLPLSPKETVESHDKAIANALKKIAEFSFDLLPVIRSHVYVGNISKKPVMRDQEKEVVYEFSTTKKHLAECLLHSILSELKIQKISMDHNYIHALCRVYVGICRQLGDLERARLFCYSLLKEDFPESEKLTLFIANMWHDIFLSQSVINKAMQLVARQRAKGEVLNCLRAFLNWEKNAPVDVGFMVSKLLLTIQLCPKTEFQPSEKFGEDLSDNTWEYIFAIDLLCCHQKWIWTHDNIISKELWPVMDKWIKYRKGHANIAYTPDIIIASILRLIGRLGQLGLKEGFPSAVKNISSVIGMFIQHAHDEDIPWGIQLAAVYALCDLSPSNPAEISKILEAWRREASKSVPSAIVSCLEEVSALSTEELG
UniProt P22692: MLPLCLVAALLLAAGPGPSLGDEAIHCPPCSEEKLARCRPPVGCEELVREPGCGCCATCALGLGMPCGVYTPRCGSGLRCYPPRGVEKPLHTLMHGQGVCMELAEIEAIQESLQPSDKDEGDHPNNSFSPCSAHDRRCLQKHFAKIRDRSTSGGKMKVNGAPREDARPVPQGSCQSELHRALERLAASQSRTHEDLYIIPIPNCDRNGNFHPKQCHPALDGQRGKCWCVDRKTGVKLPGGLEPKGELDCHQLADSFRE
UniProt Q96LU5: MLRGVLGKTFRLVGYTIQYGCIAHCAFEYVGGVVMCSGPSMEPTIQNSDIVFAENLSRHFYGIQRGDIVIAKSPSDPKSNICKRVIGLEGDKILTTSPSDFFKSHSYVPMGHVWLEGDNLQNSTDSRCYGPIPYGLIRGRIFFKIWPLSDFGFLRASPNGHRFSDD
UniProt Q8NBZ0, whole entry, looked up: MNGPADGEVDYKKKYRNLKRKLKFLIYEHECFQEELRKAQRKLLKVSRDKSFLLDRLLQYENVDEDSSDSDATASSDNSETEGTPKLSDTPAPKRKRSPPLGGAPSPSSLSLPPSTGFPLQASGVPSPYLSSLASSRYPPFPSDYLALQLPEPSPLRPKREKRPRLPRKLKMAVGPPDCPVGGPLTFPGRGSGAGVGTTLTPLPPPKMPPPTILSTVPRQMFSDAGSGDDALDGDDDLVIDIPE
UniProt Q96D96: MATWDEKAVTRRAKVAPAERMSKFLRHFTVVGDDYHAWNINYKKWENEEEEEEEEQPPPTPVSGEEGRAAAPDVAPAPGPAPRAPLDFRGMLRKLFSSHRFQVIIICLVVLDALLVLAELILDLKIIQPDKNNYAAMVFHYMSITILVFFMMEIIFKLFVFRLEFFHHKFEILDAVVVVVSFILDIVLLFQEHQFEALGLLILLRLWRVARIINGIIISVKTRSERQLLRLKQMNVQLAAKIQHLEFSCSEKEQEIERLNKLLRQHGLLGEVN
UniProt Q92598: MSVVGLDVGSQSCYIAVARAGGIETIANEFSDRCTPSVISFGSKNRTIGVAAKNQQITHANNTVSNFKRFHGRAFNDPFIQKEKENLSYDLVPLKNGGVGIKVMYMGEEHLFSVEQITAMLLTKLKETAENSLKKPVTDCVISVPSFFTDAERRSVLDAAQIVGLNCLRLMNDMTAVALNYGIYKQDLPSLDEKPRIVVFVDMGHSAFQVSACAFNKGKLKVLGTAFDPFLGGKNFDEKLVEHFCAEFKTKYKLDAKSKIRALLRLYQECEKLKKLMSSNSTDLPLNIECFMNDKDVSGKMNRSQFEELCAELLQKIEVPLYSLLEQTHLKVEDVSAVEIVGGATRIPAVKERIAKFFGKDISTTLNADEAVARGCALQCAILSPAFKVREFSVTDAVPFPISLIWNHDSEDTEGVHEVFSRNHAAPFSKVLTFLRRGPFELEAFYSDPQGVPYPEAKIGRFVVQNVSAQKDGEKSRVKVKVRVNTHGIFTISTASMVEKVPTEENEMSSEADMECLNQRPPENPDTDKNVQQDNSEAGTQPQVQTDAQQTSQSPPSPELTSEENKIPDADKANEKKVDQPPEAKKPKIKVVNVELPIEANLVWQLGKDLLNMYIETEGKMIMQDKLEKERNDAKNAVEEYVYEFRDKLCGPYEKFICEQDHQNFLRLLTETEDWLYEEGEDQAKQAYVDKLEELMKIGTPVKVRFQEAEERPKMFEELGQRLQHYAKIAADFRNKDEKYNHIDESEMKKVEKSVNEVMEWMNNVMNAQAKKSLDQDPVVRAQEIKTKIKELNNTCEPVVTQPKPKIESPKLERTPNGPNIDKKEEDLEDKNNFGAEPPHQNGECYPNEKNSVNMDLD

What was measured:
Assay in all cases: log2 fold change, soluble protein after heating vs DMSO (PISA); higher = thermal stabilisation; K562 lysate, 10 uM; active = over 0.2 and 3.5 SD of the protein, either way, in both replicates (recomputed)
[1] = compound: C1=CC=C(C=C1)[C@H](COC2=CC3=C(C=C2)NC(=O)N3)NC(=O)C4=CC=CN(C4=O)CC5=CC(=C(C=C5)F)F
How it was run: (§1)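 Soluble protein was defined as the supernatant remaining after 21,000xg for 90 min, following pooling of heated aliquots and adjustment to 0.5% NP-40 at 4°C. Before that, crude K562 extract at 1 mg/mL protein in PBS pH 7.4 with 1 mM MgCl2 was treated with 10 μM compound for 30 min and heated for 3 min across 48°C-58°C. Quantification used TMTpro 16plex LC-MS/MS with channel sums equalised, and values are log-two fold changes in thermal stability relative to solvent controls from duplicates.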

[2] = compound: CC1=C(SC2=C1C(=N[C@H](C3=NN=C(N32)C)CC(=O)N)C4=CC=C(C=C4)Cl)C
How it was run: as §1

[3] = compound: Cc1sc2c(c1C)C(c1ccc(Cl)cc1)=N[C@@H](CC(=O)OC(C)(C)C)c1nnc(C)n1-2
How it was run: as §1

[4] = compound: c1ccc([C@@H]2C[C@H]2NC2CCNCC2)cc1
How it was run: as §1

[5] = compound: CC1=C2C(=CC=C1)N=C(N(C2=O)C3=CC=CC=C3C)CN4C=NC5=C(N=CN=C54)N
How it was run: as §1

Measured: log2 fold change

HSPBAP1 (UniProt Q96EW2)
inactive: [1] 0.069 | [2] -0.022 | [3] 0.065 | [4] 0.006

IL27RA (UniProt Q6UWB1)
inactive: [1] -0.013 | [2] 0.088 | [3] -0.067 | [4] -0.05

IFIH1 (UniProt Q9BYX4)
inactive: [1] 0.059 | [2] -0.074 | [4] -0.133

HTD2 (UniProt P86397)
inactive: [1] 0.06 | [2] -0.048 | [5] 0.007 | [4] -0.107

ICA1 (UniProt Q05084)
inactive: [1] -0.009 | [2] 0.03 | [5] -0.021 | [3] -0.011 | [4] -0.006

IL17RA (UniProt Q96F46)
inactive: [1] -0.228 | [2] -0.044 | [3] 0.092 | [4] -0.174

IFT22 (UniProt Q9H7X7)
inactive: [1] 0.06 | [2] 0.137 | [3] -0.153

IGLC3 (UniProt P0DOY3)
inactive: [1] 0.295 | [2] -0.119 | [3] -0.536 | [4] -0.295

ICE1 (UniProt Q9Y2F5)
inactive: [1] 0.247 | [2] -0.06 | [3] 0.034 | [4] 0.019

IGFBP4 (UniProt P22692)
inactive: [1] 0.135 | [2] -0.099 | [3] -0.032 | [4] -0.171

Fetched one by one from above (2):
IGLC3 (UniProt P0DOY3)
inactive: [1] 0.295 | [2] -0.119 | [3] -0.536 | [4] -0.295

IFT22 (UniProt Q9H7X7)
inactive: [1] 0.06 | [2] 0.137 | [3] -0.153

Following part

IMMP1L (UniProt Q96LU5)
inactive: [1] -0.081 | [2] -0.004 | [3] 0.052 | [4] 0.006

INO80E (UniProt Q8NBZ0)
inactive: [1] 0.084 | [2] -0.022 | [3] -0.036 | [4] -0.093

HYOU1, A0A494C039
inactive: [1] 0.116 | [2] -0.026 | [3] -0.121 | [4] 0.042

HVCN1 (UniProt Q96D96)
inactive: [1] 0.078 | [2] 0.019 | [4] -0.266

HSPH1 isoform 2 (UniProt Q92598)
inactive: [1] 0.069 | [2] 0.389 | [3] -0.215
